According to PubChem BioAssay AID504467 (National Center for Advancing Translational Sciences (NCATS), 2011):
Screen size: about 330,000 compounds; about 7,700 (2.3%) were called active. Inconclusive results, whose numbers are uncertain, are shown with a selection of clear calls. The call rests on the fitted dose curve; in most records, active means well fitted inhibition curve with a large enough effect; inconclusive means small, poorly fitted or top-dose-only effect, or effect the other way; inactive means flat fitted curve, though single readings scatter. Potencies beside an inconclusive call are fits to weak or partial responses and may not hold up.

Assay: qHTS screen for small molecules that inhibit ELG1-dependent DNA repair in human embryonic kidney (HEK293T) cells expressing luciferase-tagged ELG1; further: nearly all actives have a fitted effect of over 55% in size
Conditions: HEK293T ELG1-luciferase reporter, luminescence, 16 h, DNA damage induced by 5-fluorouridine; activity change, negative = inhibition: at 46.1 µM (top of the series)
Method in brief: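 Step one: seed 2,000 cells per well. Step two: pin-transfer compound or DMSO alongside 5-fluorouridine. Step three: incubate 16 hr, 37 °C, 5% CO2. Step four: add ONE-Glo, wait 30 min, read luminescence.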
On the % scale 0 is the no-effect control and ±100 the full control effect; potency means the concentration at half of the fitted maximal effect.

Structure (SMILES)	Potency	activity change, negative = inhibition
Cc1ccc(-c2cc(=O)c3ccccc3[nH]2)cc1	inconclusive: 9.2 µM [activator, partial curve]	
COc1ccc(N(CC(=O)Nc2cc(Cl)ccc2C)S(=O)(=O)c2c(C)n[nH]c2C)cc1	inactive	
CCCCCCOc1ccc(OC(=O)c2ccncc2)cc1	inconclusive: 29.1 µM [activator, single point]	
CCc1nonc1NC(=O)c1oc2ccc(Br)cc2c1C	inconclusive: 16.4 µM [activator, single point]	
O=C(CSc1nnc(-c2ccncc2)n1Cc1ccco1)c1ccc(Cl)cc1	inconclusive: 32.6 µM [inhibitor, partial curve, poor fit]	
Cc1ccccc1NC(=O)CSc1nnc(CNC(=O)c2ccco2)n1C	inactive	
COC(=O)CNC(=O)COC(=O)/C=C/c1ccccc1[N+](=O)[O-]	inactive	
CCN(c1ccccc1)S(=O)(=O)c1ccc(F)cc1C	inconclusive: 32.6 µM [inhibitor, partial curve, poor fit]	
C=CCC(=O)N1CCCC(CCC(=O)NCc2ccccc2F)C1 (stereo not given)	inconclusive: 20.6 µM [activator, partial curve, poor fit]	
CC(=O)Nc1ccc(S(=O)(=O)NCCc2ccc(F)cc2)cc1	inactive	
O=C(COC(=O)C12CC3CC(CC(Br)(C3)C1)C2)Nc1cccc(S(=O)(=O)N2CCOCC2)c1	active: 16.4 µM	
O=C(Nc1ccc(Cl)c(S(=O)(=O)N2CCOCC2)c1)C1=NN(c2ccccc2)C(=O)CC1	active: 29.1 µM	
CCC(C)Nc1nc(N)c([N+](=O)[O-])c(N2CCCCCC2)n1 (stereo not given)	inactive	
CC1CCN(S(=O)(=O)c2cc3c4c(c2)CCN4C(=O)CC3)CC1	inconclusive: 25.9 µM [activator, single point]	
CC1CCc2nn(CC(=O)N3CCc4ccccc43)cc2C1 (stereo not given)	inconclusive: 18.4 µM [activator, partial curve, poor fit]	
CCCn1c(SCC(=O)NC(C)C23CC4CC(CC(C4)C2)C3)n[nH]c1=O (stereo not given)	inactive	
CCOC(=O)N1CCN(Cc2nc3c(c(=O)n(C)c(=O)n3C)n2CCCc2ccccc2)CC1	inconclusive: 13 µM [inhibitor, single point]	
COc1cc(/C=C2\SC(N)=NC2=O)cc(Cl)c1O	inactive	
CCc1ccc(NC(=O)CN(N=Nc2nonc2C)c2nonc2C)cc1	inconclusive: 23.1 µM [inhibitor, single point]	
CCN(CC)C(=O)[C@H]1C[C@H](CC(=O)NCCN2CCOCC2)C(=O)N2CCc3c([nH]c4cc(CCC(=O)N(C)C)ccc34)[C@]12C	inconclusive: 23.1 µM [activator, partial curve, poor fit]	
CCCc1cc(=O)oc2cc(C)cc(OCC(=O)NCc3cccnc3)c12	inactive	
CCc1c(C)[nH]c(C(=O)OCc2ccccc2)c1C	inconclusive: 29.1 µM [activator, single point]	
CCN(CC)CCNC(=O)c1cn(CC)c2cc(N3CCN(C(=O)c4ccco4)CC3)c(F)cc2c1=O	inconclusive: 23.1 µM [activator, partial curve]	
Cc1ccc(-c2nc3cnccn3c2Nc2ccc3c(c2)OCO3)cc1	inconclusive: 29.1 µM [inhibitor, single point]	

Structure (SMILES)	Potency	activity change, negative = inhibition
COc1ccc(/C=C/C(=O)NCCCN2CCCCCC2)cc1	inactive	
COc1ccc(-c2noc(CCCOc3ccc(Cl)cc3Cl)n2)cc1		inconclusive: 38.9% [activator]
CCOC(=O)N1CCC(Nc2c(N3CCN(c4cc(Cl)ccc4C)CC3)c(=O)c2=O)CC1	inconclusive: 18.4 µM [inhibitor, single point]	
Cc1cccc(CS(=O)(=O)c2ncc(Cl)c(C(=O)Nc3c(C)cccc3C)n2)c1	inactive	
CCN1CCN(Cc2c(C)[nH]c3ccc(C(=O)OC)cc3c2=O)CC1	inconclusive: 23.1 µM [activator, partial curve, poor fit]	
CCCN1CCN(C(=O)CCc2nnc3ccc(N4CCN(c5cccc(OC)c5)CC4)nn23)CC1	inconclusive: 14.6 µM [inhibitor, partial curve]	
Cc1ccn2c(NC(=O)c3ccccc3)c(-c3ccccc3)nc2c1	inactive	
CC(=O)Nc1ccc(NC(=O)CSc2nnc(NC(=O)C3CC(=O)N(c4ccc(F)cc4)C3)s2)cc1 (stereo not given)	inactive	
CC(CC(=O)Nc1ccc2c(c1)OCCO2)c1ccccc1 (stereo not given)	inconclusive: 23.1 µM [activator, partial curve]	
COc1ccc(Cl)cc1C(=O)Nc1nc2ccc(S(C)(=O)=O)cc2s1	inconclusive: 11.6 µM [activator, partial curve]	
CCC(C(=O)OC)n1cnc2c(oc3ccccc32)c1=O (stereo not given)	inconclusive: 16.4 µM [activator, single point]	
Cc1ccnc(NC(=O)c2ccc(OCC3CCCO3)cc2)c1 (stereo not given)	inconclusive: 0.184 µM [activator, partial curve, poor fit]	
Cc1ccc(S(=O)(=O)NCCC(=O)N2CCCCCCC2)cc1	inactive	
Cc1cnc(NC(=O)c2cc3ccccc3o2)s1	inconclusive: 0.58 µM [activator, full curve]	
Cc1ccc(OCC(=O)OCC(=O)c2ccccc2)cc1C	inactive	
COc1ccccc1N(CC(=O)Nc1ccc2c(c1)OCO2)S(=O)(=O)c1ccccc1	inconclusive: 9.2 µM [inhibitor, partial curve]	
O=C(CN1CC[n+]2c(-c3cccs3)csc21)c1ccc(Br)cc1	inconclusive: 20.6 µM [inhibitor, partial curve]	
COc1cc(-c2ccccc2)nc(N)n1	inconclusive: 13 µM [activator, partial curve]	
CCCCn1c(N)c(S(=O)(=O)c2ccc(C)cc2)c2nc3ccccc3nc21	inconclusive: 25.9 µM [inhibitor, partial curve]	
COc1ccc(CNC(=O)C2CCN(S(=O)(=O)c3ccc4c(c3)CC(C)N4C(=O)C3CC3)CC2)cc1 (stereo not given)	inconclusive: 23.1 µM [inhibitor, partial curve]	
CCOc1cc(NC(=S)Nc2ccccc2)c(OCC)cc1NC(=O)c1ccccc1	inconclusive: 29.1 µM [inhibitor, single point]	
CC(C)(C)NC(=O)CN(C(=O)CS(=O)CC(=O)Nc1ccc(F)cc1)c1ccccc1 (stereo not given)	inactive	
COc1cc(/C=N/NC(=O)c2cccc(S(=O)(=O)N3CCCC3)c2)ccc1O	inconclusive: 32.6 µM [activator, partial curve, poor fit]	
COc1cccc(C(=O)NC2CCCN(C3Cc4ccccc4C3)C2)c1OC (stereo not given)	inconclusive: 20.6 µM [inhibitor, single point]	

Four entries already listed, ordered by SMILES length, ascending:
Structure (SMILES)	Potency	activity change, negative = inhibition
Cc1ccc(-c2nc3cnccn3c2Nc2ccc3c(c2)OCO3)cc1	inconclusive: 29.1 µM [inhibitor, single point]	
CC1CCN(S(=O)(=O)c2cc3c4c(c2)CCN4C(=O)CC3)CC1	inconclusive: 25.9 µM [activator, single point]	
O=C(CSc1nnc(-c2ccncc2)n1Cc1ccco1)c1ccc(Cl)cc1	inconclusive: 32.6 µM [inhibitor, partial curve, poor fit]	
CCOC(=O)N1CCN(Cc2nc3c(c(=O)n(C)c(=O)n3C)n2CCCc2ccccc2)CC1	inconclusive: 13 µM [inhibitor, single point]	

Next part:

Structure (SMILES)	Potency	activity change, negative = inhibition
O=C(N/N=C/c1ccc(OCCCF)cc1)c1ccc(C(F)(F)F)cc1	inconclusive: 25.9 µM [activator, partial curve, poor fit]	
O=C(Nc1ccc2c(c1)OCO2)C1CCCN1C(=O)Nc1cccc(F)c1 (stereo not given)	inconclusive: 35.5 µM [inhibitor, single point]	
Cn1cccc1C(=O)NC1CCCCCC1	inconclusive: 20.6 µM [activator, partial curve, poor fit]	
Cc1c(Cl)cccc1NC(=S)NCCC(c1ccccc1)c1ccccc1	inconclusive: 29.1 µM [inhibitor, single point]	
COc1ccc(C(=O)Cc2cc3ccccc3oc2=O)cc1	inconclusive: 16.4 µM [activator, partial curve]	
O=C(c1ccccc1)c1sc(N2CCCCCC2)nc1-c1ccccc1	inconclusive: 16.4 µM [inhibitor, partial curve, poor fit]	
Cc1ccc(OC(=O)N2CCOCC2)cc1	inconclusive: 23.1 µM [activator, partial curve]	
CC(C)CCOc1cccc(OCC(=O)O)c1	inactive	
CC[C@@H](C)[C@H](NC(=O)C1CCN(C(=O)[C@@H](NS(=O)(=O)c2ccc(C)cc2)C(C)C)CC1)C(=O)O	inactive	
CNC(=O)Cn1nc(-c2ccc(C)cc2)c2ccccc2c1=O	inactive	
COc1cc(C)c(Br)cc1S(=O)(=O)NCc1ccncc1	active: 1.64 µM	
CCOc1ccc(C(=O)NC(=S)Nc2ccccc2N2CCC(C)CC2)cc1[N+](=O)[O-]	inactive	
CCCS(=O)(=O)N1CCCC(C(=O)NCCN(CC)c2ccccc2)C1 (stereo not given)	inconclusive: 23.1 µM [inhibitor, single point]	
CN(C)CCn1c(SCc2ccccc2C#N)nc2c(sc3ccccc32)c1=O	inconclusive: 29.1 µM [activator, single point]	
CCN(CC(=O)Nc1cc(Cl)ccc1Cl)C(=O)c1ccc(-n2cccn2)cc1	inconclusive: 29.1 µM [inhibitor, single point]	
O=C(CCc1nnc2ccc(NCc3ccco3)nn12)Nc1cccc(F)c1	inconclusive: 32.6 µM [activator, partial curve, poor fit]	
CCCCNC(=O)c1ccccc1NC(=O)C1=C(C)OCCS1	inactive	
COc1cc2c(cc1OC)CN(c1ccc(-c3ccccc3OC)nn1)CC2	inconclusive: 18.4 µM [inhibitor, partial curve]	
O=C(NCC(c1ccco1)N1CCc2ccccc21)c1ccccc1 (stereo not given)	inactive	
CCc1cccc(CN2CCC(CNC(=O)Nc3ccc(Cl)cc3)CC2)c1	inactive	
COc1ccc(O)c(-c2cc(-c3cccs3)[nH]n2)c1	inconclusive: 9.2 µM [activator, partial curve]	
OCCCNc1nc(-c2ccccc2)nc2c1oc1ccccc12	active: 23.1 µM	
